Results on 17 compounds are retold here after PubChem BioAssay AID493014 (National Center for Advancing Translational Sciences (NCATS), 2011).

Structures are written as SMILES. Some of the results follow. The main result of the screen is listed elsewhere. These columns were measured beside it and carry no call. The list favours compounds with an active or inconclusive main result. The note in brackets gives the kind of curve behind each potency; many fits are weak.

The experiment can be described thus: qHTS Assay to Find Inhibitors of Chronic Active B-Cell Receptor Signaling. To be noted: ABC-DLBCL IkBa-CBG/CBR reporter, luminescence ratio (green luciferase fused to IkBa over red control in TMD8 lymphoma cells), 4 h. In outline: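 Doxycycline induced both beetle luciferases in TMD8 lymphoma cells; IKK-driven degradation limits the IkappaBalpha-fused green signal, while red luminescence normalises for cell number and nonspecific effects. Compounds tested up to 46 uM, 4 hrs.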

[1] abbreviates: measured here: CBR red luminescence, cell number.
[2] abbreviates: measured here: IkBa-CBG green luminescence.

In general, AC50 refers to the midpoint of the concentration-response curve, whichever way the signal moves. Regarding `CC(C)C[C@H](NC(=O)N1CCCCCC1)C(=O)O`, the half-maximal activity concentration (AC50) under setting [1] is 35.5 µM [rising, single point].

In the case of `Cc1onc(-c2ccccc2)c1C(=O)OCCOc1ccc([N+](=O)[O-])cc1[N+](=O)[O-]`, the AC50 under setting [1] is 6.31 µM [rising, single point].

As to `CC(=O)Nc1ccc(NC(=O)COC(=O)c2ccc(C)s2)cc1`, the AC50 under setting [1] is 20.6 µM [rising, single point].

For `O=C(CCCc1ccccc1)Nc1cccnc1`, the AC50 is 18.4 µM [falling, single point] under setting [1] and 20.6 µM [rising, partial curve, poor fit] under setting [2].

On to `O=[N+]([O-])c1ccc(N/N=C\c2cccn2-c2ccccc2)nc1`, for which the half-maximal activity concentration (AC50) under setting [1] was 0.447 µM [rising, partial curve, poor fit].

As for `CCCc1cc(NCCCN(C)C)n2c(nc3ccccc32)c1C#N`, the half-maximal activity concentration (AC50) under setting [1] was 11.2 µM [falling, single point].

On to `Cc1cc(C)c(NC(=O)CNC(=O)c2ccccc2OCc2c(C)noc2C)c(C)c1`, for which, under setting [1], the AC50 was 20.6 µM [rising, single point].

As for `COC(=O)c1ccccc1SCc1csc(C)n1`, the AC50 under setting [1] is 8.91 µM [rising, partial curve].

As to `COc1cccc(C2C(=O)c3ccccc3C2=O)c1`, under setting [1], the AC50 was 4.47 µM [rising, single point].

For the compound `COc1ccc(NS(=O)(=O)c2cccc(NC(=O)CCS(=O)(=O)c3ccccc3)c2)cc1`, the AC50 under setting [1] is 32.6 µM [falling, partial curve, poor fit].

As for `CCNc1nc(NC(C)C)nc(N(C#N)CCOc2ccc(Cl)cc2Cl)n1`, the AC50 by setting is: under setting [1], 29.1 µM [falling, single point]; under setting [2], 23.1 µM [rising, partial curve, poor fit].

In the case of `CCCCOc1ccc(C(=O)NCCOc2cccc(OC)c2)cc1`, the AC50 under setting [1] was 25.1 µM [rising, partial curve, poor fit].

As for `CCOc1ccc(OCc2ccc(C(=O)O)o2)cc1`, the AC50 under setting [1] is 8.2 µM [falling, partial curve].

For `Cc1ccc(S(=O)(=O)Nc2ccc(C(=O)N3CCN(c4ccccc4O)CC3)cc2)cc1[N+](=O)[O-]`, the AC50 under setting [1] is 32.6 µM [falling, single point].

As to `C/C(=N\Nc1ccc(C(=O)O)cc1)c1ccc2c(c1)Nc1ccccc1S2`, the AC50 is, setting by setting: under setting [1], 2.82 µM [falling, full curve]; under setting [2], 0.316 µM [rising, full curve, poor fit].

`COc1cc(C(=O)Nc2ccc(O)cc2)ccc1OC(C)=O`: the AC50 under setting [1] is 2.31 µM [falling, partial curve, poor fit].

Turning to `CC(=O)c1ccccc1NC(=O)c1ccc2c(c1)NC(=O)C(C)S2` (stereo not given), the concentration at half-maximal activity (AC50) under setting [1] is 11.6 µM [falling, partial curve, poor fit].
